System: locust brain barrier
Conditions: exposure 3, 10, 30 and 100 μmol/L for 5 min; Fig. 3; n = 3

Compound: CC(C)NCC(O)COc1ccc(CC(N)=O)cc1 (stereo not shown) [Atenolol, atenolol]
- Concentration-dependent ex vivo brain uptake profile: linear increase
